What all share (assay): co-IP
The target in test [1] is HA-PB1-F2-GFP (influenza virus A/PuertoRico/8/34) (UniProt P0C0U1).
For test [2], the target named is PB1-F2 (transfected in 293T cells, coimmunoprecipitation of Figure 5B) (influenza virus A/PuertoRico/8/34) (UniProt P0C0U1).
Test [3] has as its target HA-PB1-F2-GFP (influenza virus A/PuertoRico/8/34) (UniProt P0C0U1). The source holds these as a separate data set.

Sequences of proteins named here, by UniProt entry; tags and fusion partners are left off.
UniProt P0C0U1: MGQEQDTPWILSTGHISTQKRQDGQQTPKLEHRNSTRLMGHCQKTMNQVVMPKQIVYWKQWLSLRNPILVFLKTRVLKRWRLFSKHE
UniProt P21796: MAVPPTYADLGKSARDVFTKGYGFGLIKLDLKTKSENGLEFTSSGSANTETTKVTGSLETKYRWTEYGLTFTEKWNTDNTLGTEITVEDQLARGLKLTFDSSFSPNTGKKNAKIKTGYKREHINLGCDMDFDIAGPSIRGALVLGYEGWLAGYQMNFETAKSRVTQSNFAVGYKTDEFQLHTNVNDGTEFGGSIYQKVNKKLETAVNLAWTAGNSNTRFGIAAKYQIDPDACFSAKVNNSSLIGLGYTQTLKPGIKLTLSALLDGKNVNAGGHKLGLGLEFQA

Where two headings read alike, the source gives them in different places. Results are given in words; binding and its absence hold for the method and conditions named. In cells and extracts the contact can be indirect. Some entries that bind do so weakly or less than the wild type. For part of these data: Where a sequence is shown, tags or fusion partners need not be part of it.

We go through three molecules from publication PMC1238739.

Turning to “Flag-tagged VDAC1 (from UniProt P21796 1-283)”, the binding result in test [1] is given as “binds”.

B1: HA-tagged ANT3 (protein, UniProt P12236 1-298)
chain: MTEQAISFAKDFLAGGIAAAISKTAVAPIERVKLLLQVQHASKQIAADKQYKGIVDCIVRIPKEQGVLSFWRGNLANVIRYFPTQALNFAFKDKYKQIFLGGVDKHTQFWRYFAGNLASGGAAGATSLCFVYPLDFARTRLAADVGKSGTEREFRGLGDCLVKITKSDGIRGLYQGFSVSVQGIIIYRAAYFGVYDTAKGMLPDPKNTHIVVSWMIAQTVTAVAGVVSYPFDTVRRRMMMQSGRKGADIMYTGTVDCWRKIFRDEGGKAFFKGAWSNVLRGMGGAFVLVLYDELKKVI
As to B1, the binding entry in test [2] is listed as “binds”.

B2: Flag-tagged ANT3 (protein, UniProt P12236 1-298)
chain: MTEQAISFAKDFLAGGIAAAISKTAVAPIERVKLLLQVQHASKQIAADKQYKGIVDCIVRIPKEQGVLSFWRGNLANVIRYFPTQALNFAFKDKYKQIFLGGVDKHTQFWRYFAGNLASGGAAGATSLCFVYPLDFARTRLAADVGKSGTEREFRGLGDCLVKITKSDGIRGLYQGFSVSVQGIIIYRAAYFGVYDTAKGMLPDPKNTHIVVSWMIAQTVTAVAGVVSYPFDTVRRRMMMQSGRKGADIMYTGTVDCWRKIFRDEGGKAFFKGAWSNVLRGMGGAFVLVLYDELKKVI
As for B2, the binding entry in test [3] is “binds”.
